Measured values published in patent publication US20240425857A1, “Means and Methods for Chronic Wound Healing” (VIB VZW, priority 2021, published 2024).
Entries after “also recorded” stand apart in the source; their conditions may differ. At least one structure is not confirmed: it was looked up by name or label, or the drawing left a doubt.

Key:
dendritic cells (BMDC) [1] = assay: Efferocytosis assay: dendritic cells incubated with apoptotic Jurkat cells (flow cytometry or Incucyte live-cell imaging); format: cell-based, mouse; settings: apoptotic Jurkat targets, 1:5 phagocyte:target ratio; cells pretreated 1 hour with the substance
Experimental: Efferocytosis assays. For induction of apoptosis, human Jurkat T cells were with stained with CypHerSE (#PA15401, GE Healthcare) or TAMRA (#C-1171, Invitrogen) or pHrodo™ Green STP Ester (#P35369, ThermoFisher), resuspended in RPMI with 5% fetal calf serum, treated with 150 mJ/cm^2 ultraviolet C irradiation (Stratalinker) and incubated for 4 h at 37° C. with 5% CO2. Dendritic cells were incubated with apoptotic targets at a 1:5 phagocyte: target ratio for the indicated times. Phagocytosis was assessed by a flow cytometry-based assay^21 or by Incucyte Live-cell imaging. As alternative targets for phagocytosis, dendritic cells were incubated with pHrodo™ Green E. coli BioParticles™ (#P35366, ThermoFisher) or Streptavidin Fluoresbrite® YG Microspheres, 2.0 μm (for simplicity, beads) at a 1:5 phagocyte: target ratio for the indicated times. When applicable, cells were pretreated for 1 hour with 5 μM erastin (#S7242, Bio-Connect B.V), 200 μM CP-91149 (#S2717, Bio-Connect B.V.), 0.2 mM 2-DG (2-Deoxy-D-glucose; #D8375-1G, Sigma), 5 μM UK5099 (#PZ0160, Sigma), 40 μM DON (6-Diazo-5-oxo-L-norleucine; #D2141-5 MG, Sigma), 10 μM 3-BP (3-Bromo-2-oxopropionic acid, #376817-M, Sigma), 10 mM Glutamate (#6106 Apr. 3, Sigma) before addition of targets.

dendritic cells [2] = assay: Phagocytosis of E. coli bioparticles by dendritic cells; format: cell-based, mouse; settings: with or without erastin treatment
dendritic cells [3] = assay: Determination of glutathione levels in dendritic cells (GSH/GSSG-Glo); format: cell-based, mouse; settings: two hours after erastin treatment
dendritic cells [4] = assay: Ferroptosis characterization: lipid peroxidation and ROS in dendritic cells; format: cell-based, mouse; settings: 5 μM erastin
peritoneal macrophages = assay: Efferocytosis by peritoneal macrophages after Slc7a11 inhibition; format: cell-based, mouse; settings: peritoneal macrophages from wild-type mice
dendritic cells [5] = assay: Determination of glycogen concentration in dendritic cells; format: cell-based, mouse; settings: erastin-treated wild type cDC1 versus DMSO
Experimental: Determination of glycogen concentration. The glycogen concentration was measured using a Glycogen Colorimetric/Fluorometric Assay Kit (#GENT-K646-10, BioVision) according to the manufacturer's instructions.

dendritic cells (BMDC) [6] = assay: Seahorse analysis (ECAR, OCR, spare respiratory capacity) of dendritic cells; format: cell-based, mouse
db/db mice = assay: Full-thickness skin wounding, wound healing in diabetic db/db mice; format: in vivo, mouse; settings: no apoptotic cell co-administration
Text: Skin wounding and erastin regimen. Full-thickness wounds were made as previously described^65.56 Briefly, wounds were made on shaved back skin by using 8-mm punch biopsy needles (Stiefel Instruments) under analgesia and general anesthesia in 8-week-old female C57BL/6J, B6.BKS (D)-Leprdb/J (db/db), GDF15KO, Slc7a11KO and control littermates. For wound healing experiments, assuming standard deviations of 10-15%, an experimental group of n=10 is needed to obtain statistical power of 90% (significance level 0.05) and detect a difference between means of 20%, using two-tailed paired T-testing. No animals were excluded from any experiment.
For topical applications, mice were intradermally injected with Imidazole ketone erastin (IKE at 20 mg kg^−1 in 100 μl PBS; MedChemExpress, #HY-114481) or recombinant human GDF-15 (0.7 mg kg^−1 in 100 μl PBS; R&D Systems, #9279-GD-050) or RSL3 (20 mg kg-1 in 100 μl PBS; Sellechem, #S8155) or the respective vehicle controls (DMSO or 4 mM HCl in 100 μl PBS) at the time of wounding and for two consecutive days. For the experiments indicated as ‘erastin regimen’ or vehicle regimen, 5 million apoptotic Jurkat cells were administrated once on day 0 in 50 μl PBS on top of back skin immediately after full-thickness excision biopsy. […]

[7] = tested on: diabetic db/db dendritic cells; assay: Ex vivo efferocytosis by dendritic cells from diabetic db/db mice; format: cell-based, mouse

For CCOc1ccccc1-n1c(C(C)N2CCN(C(=O)COc3ccc(Cl)cc3)CC2)nc2ccccc2c1=O (centres unmarked) [erastin], the “efferocytosis (apoptotic cell uptake) by dendritic cells” value (dendritic cells (BMDC) [1]) was “dramatic boost in efferocytosis; also recorded: promotes apoptotic cell uptake by dendritic cells”, the “phagocytosis of E. coli bioparticles by dendritic cells” value (dendritic cells [2]) was “did not affect the phagocytosis of E. coli bioparticles” and the intracellular glutathione levels (dendritic cells [3]) was “reduce intracellular glutathione levels”. For the same compound, the “lipid ROS accumulation” value (dendritic cells [4]) was “only modestly increased lipid ROS accumulation”, the “efferocytosis by peritoneal macrophages” value (peritoneal macrophages) was “nor peritoneal macrophages from wild-type mice treated with erastin showed enhanced efferocytosis” and the intracellular glycogen (dendritic cells [5]) was “reduced intracellular glycogen”. The “aerobic glycolysis (ECAR)” value (dendritic cells (BMDC) [6]; 5 μM erastin 2 hours prior) was “greater aerobic glycolysis (ECAR)”, the “oxygen consumption rate (OCR)” value (dendritic cells (BMDC) [6]; 5 μM erastin 2 hours prior) was “decreased oxygen consumption rate” and the spare respiratory capacity (dendritic cells (BMDC) [6]; erastin-treated) was “significantly reduced spare respiratory capacity”. For the same compound, the “diabetic wound healing, substance alone” value (db/db mice) was “acceleration of closure” and the “efferocytosis by dendritic cells from diabetic mice” value [7] was “rescued; also recorded: enhances efferocytosis in dendritic cells from diabetic mice”.
